In test [1] the target is purified recombinant IFNAR-1 extracellular fragment (human) (UniProt P17181). The test can be described thus: Biacore, antibody captured on anti-human IgG Fc, soluble IFNAR-1 25-400 nM.
Test [2] has as its target IFNAR-1 on peripheral blood cells from rhesus monkeys (rhesus monkey) (UniProt H9FTY2). Put plainly: flow cytometry on peripheral blood cells from rhesus monkeys. Background: A flow cytometer gives signals particle by particle.

By UniProt entry, the sequences of proteins in these tests, tags left out. Where a name states a change or a piece, a line headed by the entry shows the natural chain unless it says otherwise. Chains listed by the source or under a name are the forms on record and can include a tag or linker. Residues count along the entry.
UniProt P17181, residues 28-436: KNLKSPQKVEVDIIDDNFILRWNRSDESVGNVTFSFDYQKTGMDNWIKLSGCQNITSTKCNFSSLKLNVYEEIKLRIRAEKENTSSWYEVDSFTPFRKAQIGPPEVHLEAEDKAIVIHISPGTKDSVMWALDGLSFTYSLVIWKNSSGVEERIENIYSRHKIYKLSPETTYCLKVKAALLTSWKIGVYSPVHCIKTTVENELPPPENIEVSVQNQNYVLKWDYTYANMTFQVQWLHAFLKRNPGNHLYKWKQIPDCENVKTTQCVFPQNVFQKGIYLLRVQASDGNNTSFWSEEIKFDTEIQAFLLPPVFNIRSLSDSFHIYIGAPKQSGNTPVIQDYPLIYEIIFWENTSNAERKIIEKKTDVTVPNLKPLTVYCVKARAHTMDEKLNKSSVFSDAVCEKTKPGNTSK
IFNAR-1 on peripheral blood cells from rhesus monkeys (H9FTY2, form named): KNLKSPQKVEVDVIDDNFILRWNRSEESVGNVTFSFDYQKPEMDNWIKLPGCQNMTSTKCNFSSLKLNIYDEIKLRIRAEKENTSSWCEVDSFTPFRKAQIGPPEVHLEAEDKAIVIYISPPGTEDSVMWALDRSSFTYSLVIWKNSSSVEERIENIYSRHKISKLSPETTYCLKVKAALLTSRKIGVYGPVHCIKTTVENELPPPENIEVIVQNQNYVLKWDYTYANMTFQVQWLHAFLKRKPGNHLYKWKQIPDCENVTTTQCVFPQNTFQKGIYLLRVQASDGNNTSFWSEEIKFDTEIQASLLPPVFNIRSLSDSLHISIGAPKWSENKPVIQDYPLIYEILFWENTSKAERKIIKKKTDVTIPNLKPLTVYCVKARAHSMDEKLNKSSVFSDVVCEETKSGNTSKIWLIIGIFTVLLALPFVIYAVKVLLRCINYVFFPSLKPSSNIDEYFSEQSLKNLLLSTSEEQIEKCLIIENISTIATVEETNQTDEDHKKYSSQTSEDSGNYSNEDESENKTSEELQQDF

Substitutions are numbered along the chain they refer to. These are yes or no findings as the source states them, for the method shown. Some binding calls cover weakened binding; strength is not graded here.

This passage reports binding results from patent US20050208041A1 (Bristol-Myers Squibb, published 2005).

B1: DI M3-B heavy chain with K1-C light chain (Example 3) (antibody, V domains shown)
VH: EVQLLESGGGLVQPGGSLRLSCAASGFTMSTSGMGIGWIRQTPGKGLEWVAHIWWDDDKYYNPSLKARFTISRDTSKNTLYLQMNSLRAEDTAVYYCARNYYPYDAWFDYWGQGTLVTVS
VL: DIQMTQSPSSLSASVGDRVTITCSASTSINSNHLHWYQQKPGKAPKLLIYRTSILASGVPSRFSGSGSGTSFTLTISSLQPEDFATYYCQQGSNIPFTFGQGTKVEIKR
notes: also called DIM3-B K1-C; DI M3-B K1-C
Consider B1, for which the binding entry in test [1] is listed as “binds”.

B2: H3K1 (IgG4) (antibody, V domains shown)
VH: B1 VH with L5V, A24F, M29L, I39V, T42A, A67S, L80V
VL: B1 VL with T27S
notes: also called H3K1 standard; humanized anti-IFNAR-1 mAb H3K1
With B2, the binding result in test [2] is listed as “binds”.
